Results are given in words; binding and its absence hold for the method and conditions named. In cells and extracts the contact can be indirect. A result given as binding can be weak or reduced; the word gives no strength.
Molecular target: GST-tagged recombinant tail domain of KIF3B (mouse) (UniProt Q61771)
Assay: pull-down

The chains behind the UniProt entries cited, without tags or fusion partners. Where a name states a change or a piece, a line headed by the entry shows the natural chain unless it says otherwise.
UniProt Q61771: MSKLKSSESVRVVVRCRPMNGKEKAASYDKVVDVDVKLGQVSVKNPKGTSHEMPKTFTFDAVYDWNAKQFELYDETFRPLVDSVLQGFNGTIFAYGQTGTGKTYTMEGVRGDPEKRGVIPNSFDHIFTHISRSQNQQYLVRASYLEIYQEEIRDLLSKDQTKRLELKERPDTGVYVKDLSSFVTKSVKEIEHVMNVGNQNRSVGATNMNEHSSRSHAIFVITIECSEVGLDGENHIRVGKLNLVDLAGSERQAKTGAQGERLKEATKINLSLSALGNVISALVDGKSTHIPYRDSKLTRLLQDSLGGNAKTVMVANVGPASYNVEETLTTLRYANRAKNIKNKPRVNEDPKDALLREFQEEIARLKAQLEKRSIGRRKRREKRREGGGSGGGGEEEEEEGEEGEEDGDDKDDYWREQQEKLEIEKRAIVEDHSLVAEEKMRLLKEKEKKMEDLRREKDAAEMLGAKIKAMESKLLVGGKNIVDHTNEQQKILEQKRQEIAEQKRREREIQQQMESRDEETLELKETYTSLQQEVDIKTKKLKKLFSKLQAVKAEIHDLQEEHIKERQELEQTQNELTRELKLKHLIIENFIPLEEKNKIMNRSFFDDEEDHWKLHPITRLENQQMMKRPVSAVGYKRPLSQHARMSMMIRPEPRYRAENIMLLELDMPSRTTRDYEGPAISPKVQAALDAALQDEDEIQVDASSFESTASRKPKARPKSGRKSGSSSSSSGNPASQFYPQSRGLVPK
UniProt P62260: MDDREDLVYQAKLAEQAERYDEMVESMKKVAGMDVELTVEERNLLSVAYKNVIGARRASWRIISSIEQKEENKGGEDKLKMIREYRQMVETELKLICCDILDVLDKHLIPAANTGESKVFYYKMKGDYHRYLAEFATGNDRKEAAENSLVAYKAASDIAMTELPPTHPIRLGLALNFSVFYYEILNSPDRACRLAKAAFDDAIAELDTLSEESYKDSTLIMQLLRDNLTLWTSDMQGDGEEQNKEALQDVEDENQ

Substance: 14-3-3ε from rat brain extract (from UniProt P62260 1-255)
- binding: binds weakly

— doi:10.1101/2025.08.20.671056
